Experimental data: PubChem BioAssay AID504804 (Drosophila RNAi Screening Center, 2011)
In all, the deposit lists about 19,000 reagents; shown is an unselected part of those that have a named target and a result. Of all reagents, 47 (0.25%) were called active. 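Signals are raw, not normalised; exact z-scores behind calls not deposited; actives needed confirmation, so some wells reaching 2 SD are inactive.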 A number with no mark means an inactive call.

Aim: 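Fly genes whose loss lessens doxorubicin-driven cell death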 (primary screen)
Cell system: Drosophila Kc cells
Reagent: long dsRNA against Drosophila genes, 0.5 µg dsRNA per well
Time to read-out: 96 h (48 h knock-down, then 48 h drug)
Challenge: doxorubicin 5 µg/ml for 48 h, added 48 h after dsRNA
Read-out: 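Viability measured as cellular ATP by luminescence after 48 h knock-down then 48 h doxorubicin at 5 µg/ml; unnormalised plate counts for each replicate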
Reading the numbers: raw ATP luminescence: higher = more viable cells, protection from doxorubicin
Hit rule: 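z-score of 2 or more over plate mean in both duplicates, retained only when retests and separate dsRNAs confirm the protection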

gene knocked down	dsRNA	raw ATP luminescence, replicate 1	raw ATP luminescence, replicate 2
htl	DRSC16968	34703	33523
CG12680	DRSC17871	45220	57350
CG14024	DRSC00868	2.85e5	2.55e5
CG14024	DRSC02354	1.15e5	57307
STUB1	DRSC03282	47277	48100
CG11474	DRSC04112	87113	68757
mib2	DRSC02623	86510	57327
RabX2	DRSC18234	3.05e5	2.92e5
CG12523	DRSC09895	82680	82947
CG5056	DRSC02808	58100	86673
Ndg	DRSC06223	81527	46270
UQCR-C1	DRSC15508	46183	26427
gd	DRSC20336	3.22e5	3.29e5
endos	DRSC10658	25840	19767
rdgA	DRSC17863	43890	38260
rdgA	DRSC18036	46590	41110
CG6980	DRSC16162	37323	41947
CG32507	DRSC20421	2.60e5	2.67e5
Tet	DRSC08550	84423	71510
spaw	DRSC06824	65513	66750
Wdr62	DRSC00081	3.02e5	2.71e5
Wdr62	DRSC00082	3.21e5	3.16e5
Wdr62	DRSC00701	55960	31313
wmd	DRSC04436	71783	74067
Ude	DRSC15324	43150	37783
CG14377	DRSC14837	68510	59270
rdx	DRSC14526	35240	28140
rdx	DRSC16580	1.09e5	1.11e5
Octbeta3R	DRSC15351	53217	62767
Octbeta3R	DRSC16191	49880	58183
sev	DRSC20372	2.69e5	3.06e5
Hmgcr	DRSC16704	42080	48630
rho-5	DRSC02847	54470	86500
Edg91	DRSC16657	92940	75630
TTLL6B	DRSC15932	57630	44620
CG4511	DRSC15589	57840	47200
CG31819	DRSC01532	2.56e5	2.55e5
pug	DRSC17036	58950	61170
CG33635	DRSC00006	2.32e5	2.53e5
twin	DRSC15259	41767	39083
twin	DRSC15831	80590	71600
CG17187	DRSC15181	54523	51590
RpS4	DRSC11272	61037	62840
CR31292	DRSC13120	2.96e5	3.61e5
ppk8	DRSC17269	2.48e5	2.41e5
mEFTu2	DRSC06163	81110	51487
CG9338	DRSC03213	68897	50287
unc-13-4A	DRSC10201	66590	72137
unc-13-4A	DRSC10202	77520	95440
unc-13-4A	DRSC10203	42677	47127
unc-13-4A	DRSC11013	73420	72680
CG15482	DRSC02492	49720	56603
mfrn	DRSC15687	40610	29420
Cog1	DRSC15661	60837	21493
qkr58E-2	DRSC04710	42463	43940
CG13982	DRSC02314	30303	29337
IFT54	DRSC15469	83250	49580
Cyp9f2	DRSC16635	63290	31997
bgm	DRSC03495	41823	42280
spz4	DRSC02410	36217	55033
nmo	DRSC08902	1.29e5	1.46e5
nmo	DRSC11377	37583	35043
Acer	DRSC01852	89993	78737
CG14985	DRSC08078	1.90e5	1.52e5
CG4806	DRSC04491	53060	58317
pnut	DRSC07666	63990	51963
elgi	DRSC10242	37417	35690
CG3625	DRSC00008	1.61e5	2.19e5
CG3625	DRSC00621	97730	76150
CG17991	DRSC15294	61560	56450
CG12679	DRSC20493	3.55e5	2.71e5
Fit2	DRSC10908	28803	25600
CR42745 (retired record)	DRSC13756	2.73e5	2.73e5
CG34273	DRSC13041	1.82e5	1.66e5
CG32547	DRSC19263	2.80e5	2.59e5
CG32547	DRSC19265	2.62e5	2.56e5
CG32547	DRSC19474	3.18e5	3.69e5
CG32547	DRSC19626	4.35e5	3.68e5
14-3-3zeta	DRSC05028	49403	42180
CG30427	DRSC04014	78007	78400
CG30427	DRSC04311	82970	70117
CG30427	DRSC04323	51353	70340
CG2889	DRSC18236	3.06e5	3.05e5
Vps24	DRSC12332	28010	32533
cv-2	DRSC03861	68717	60437
cv-2	DRSC04261	52523	64250
CG13081	DRSC02185	51337	48080
cocoon	DRSC10916	41570	29437
Ublcp1	DRSC14149	43197	32687
CG14234	DRSC19317	2.78e5	2.49e5
CG14234	DRSC19589	2.53e5	2.83e5
CG9932	DRSC03275	57893	60913
rept	DRSC11388	64263	60760
CG42238	DRSC03180	61240	74347
CG11951	DRSC14442	60190	51020
Spn43Aa	DRSC06117	58277	54373
Pld	DRSC04854	67067	60100
CG10283	DRSC02034	81003	71903
Pi3K21B	DRSC00771	92167	83977
Qsox3	DRSC16096	59880	72480
CG11248	DRSC11644	29723	18457
Rrp45	DRSC20198	2.98e5	2.71e5
CG5742	DRSC06949	66790	57787
GluRIIE	DRSC13431	1.85e5	2.16e5
HipHop	DRSC10734	19927	17833
Dus4	DRSC02066	96487	79203
Fum3	DRSC10592	72447	66653
